This note sets out measurements from PubChem BioAssay AID2685 (National Center for Advancing Translational Sciences (NCATS), 2010).

A short description of the experiment: qHTS Assay for Lipid Storage Modulators in Drosophila S3 Cells.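 On cell number change: cells counted by Cell Tracker Red CMTPX staining in the red channel.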 Particulars: BODIPY lipid droplet fluorescence, 18-24 h; for cell number change: measured here: cell count max response, cells fed with added oleic acid. The method in brief:
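Drosophila S3 cells loaded with oleic acid (400 uM, as added) and compounds at several concentrations; lipid droplets imaged by 488-nm laser-scanning cytometry, 500–530 nm intensity and object ratio to cell channel. Percent activity normalized to 20 uM Triacsin C.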

Where [1] appears, read: measured here: lipid fluorescence (Fed channel) AC50, cells fed with added oleic acid.
[2] abbreviates: measured here: cell number channel AC50, cells fed with added oleic acid.

One may read the AC50 as the concentration at which the activity in the assay is half-maximal. A low value points to greater potency.

The structures appear in SMILES notation. The list shows a part of the results. These are further read-outs of the screen, such as a control signal, another cell line or another target. No call is given for them. Most of these compounds were active or inconclusive in the main read-out, so they are no random draw. Words in brackets tell the shape of the fitted curve; partial curves, single points and poor fits give uncertain potencies.

Regarding `CSc1nc2ccc(NC(=O)c3nn(C(C)C)c(=O)c4ccccc34)cc2s1`, the cell number change was 5.54%.

Regarding `CCN(CC)c1nc2c(c(=O)n(C)c(=O)n2C)n1CC(=O)c1ccccc1`, the cell number change turned out to be 4.06%. In addition, the AC50 under setting [1] is 0.231 µM [rising, full curve, poor fit].

As to `C=CCNC(=O)c1ccccc1NC(=O)C1COc2ccccc2O1` (configuration not stated), the cell number change stood at 11.7%. Moreover, the AC50 under setting [1] was 29.1 µM [falling, single point].

Consider `COc1ccccc1N(C)S(=O)(=O)c1ccc(C(=O)Nc2nccs2)cc1`, for which the cell number change is -40.5%. For the same compound, under setting [2], the half-maximal activity concentration (AC50) is 18.4 µM [falling, partial curve]. Under setting [1], the AC50 is 16.4 µM [falling, partial curve, poor fit].

With `Cc1ccc(-n2cc(C(=O)c3ccccc3O)cn2)cc1`, the cell number change came out at 10.6%.

As for `CCOC(=O)C1=C2c3ccc4ccccc4c3CC(C)(C)N2C(=O)C1=O`, the cell number change is 4.6%. The AC50 under setting [2] is 6.51 µM [rising, single point].

In the case of `O=C(CCCn1c(SCC(=O)Nc2ccccc2C(F)(F)F)nc2ccccc2c1=O)NCC1CCCO1` (configuration not stated), the cell number change was 30.5%. Moreover, under setting [2], the AC50 was 16.4 µM [rising, single point].

In the case of `Cc1cc(C)nc(N/N=C/c2sccc2C)n1`, the cell number change is -38.2%.

As to `O=C(COc1ccccc1F)NNC(=O)c1ccc(N2CCCCC2)c([N+](=O)[O-])c1`, the cell number change was -6.61%. Also, the AC50 under setting [2] is 6.51 µM [rising, single point]. Also, the AC50 under setting [1] was 0.731 µM [rising, single point].

Consider `CSc1ccc(CN2CCC(N3CC(C)OC(C)C3)CC2)cc1` (configuration not stated), for which the cell number change was found to be 19.7%. Further, under setting [1], the half-maximal activity concentration (AC50) was 0.231 µM [rising, full curve, poor fit].

`Fc1ccc(CNc2ccccn2)cc1`: the cell number change came out at 13.2%. Moreover, the AC50 under setting [1] is 0.13 µM [rising, full curve, poor fit].

`COC(=O)Nc1ncc(CN2CCCCC2)s1`: the cell number change was -103%. The AC50 under setting [2] is 23.1 µM [falling, partial curve].

For the compound `CC(=O)c1ccc(OCC(O)COc2ccc(C(C)=O)cc2)cc1`, the AC50 is, setting by setting: under setting [2], 6.51 µM [rising, single point]; under setting [1], 6.51 µM [rising, single point].

`O=C1c2ccccc2C(=O)N1CCc1csc(-c2cccc(F)c2)n1`: the cell number change was found to be 142%. The AC50 under setting [2] is 11.6 µM [rising, partial curve]. Besides, the AC50 under setting [1] was 13 µM [rising, partial curve].

For `Cc1ccc(NC(=O)CSc2nc3ccccc3c(=O)n2CCCN2CCCCC2)cc1C`, the cell number change is -29.9%. The AC50 under setting [1] was 14.6 µM [falling, partial curve].

With `COc1ccc(N2CCN(C(=O)CCS(=O)(=O)c3ccc4c(c3)NC(=O)C(C)S4)CC2)cc1` (configuration not stated), the cell number change stood at 4.89%. The AC50 under setting [1] was 6.51 µM [rising, single point].

With `COc1ccc(NC(=O)c2ccc(NC(=O)C(C)C)cc2)c([N+](=O)[O-])c1`, the cell number change was found to be 6.11%. For the same compound, the AC50 under setting [1] is 0.146 µM [rising, full curve, poor fit].

Turning to `Clc1ccc(/C(Cc2nc3ccccc3[nH]2)=N\Nc2ccccc2)cc1`, the cell number change is -45%. In addition, under setting [2], the AC50 is 25.9 µM [falling, single point]. Besides, under setting [1], the AC50 was 18.4 µM [falling, partial curve].

Take `COc1cc(Cl)c(C)cc1NC(=O)CSc1nnc(-c2ccco2)n1CC(C)C`: the cell number change is -20.3%. Further, the AC50 under setting [1] was 9.2 µM [rising, single point].

With `COc1ccc(S(=O)(=O)NCc2ccco2)cc1C(=O)N1CCCCC1`, the cell number change was -2.63%. For the same compound, under setting [1], the AC50 was 0.112 µM [falling, full curve, poor fit].

As for `CN(C)C(CNC(=O)CCNS(=O)(=O)c1ccccc1C(F)(F)F)c1ccccc1` (configuration not stated), the cell number change came to 8.03%.

With `C=CCn1c(Oc2ccccc2)nc2c1c(=O)n(C)c(=O)n2C`, the cell number change was found to be 2.14%. Further, under setting [1], the AC50 was 0.164 µM [falling, full curve, poor fit].

On to `CN1CCN(C(=O)c2cc(COc3ccccc3)on2)[C@@H](c2ccccc2)C1`, for which the cell number change worked out at 25%. Under setting [2], the half-maximal activity concentration (AC50) is 0.731 µM [rising, full curve, poor fit].

Take `Clc1ccc(-c2nsc(N3CCOCC3)n2)c(Cl)c1`: the cell number change is 9.13%.

Regarding `CCCCCC(=O)NNC(=O)c1c(O)c2ccccc2n(CC)c1=O`, the cell number change is -19.7%. The AC50 under setting [1] is 32.6 µM [falling, single point].

Regarding `COc1ccc([N+](=O)[O-])cc1NC(=O)c1ccc(CN(c2ccc(C)c(C)c2)S(C)(=O)=O)cc1`, the cell number change was 11.8%. Besides, under setting [1], the AC50 is 0.00411 µM [rising, full curve, poor fit].

`NC1=NC(=O)CC(C(=O)NCc2ccccc2)S1` (configuration not stated): the cell number change was -19%. Also, the AC50 under setting [2] was 6.51 µM [falling, single point]. The AC50 under setting [1] was 4.61 µM [falling, partial curve].

For `CCNC(=S)NNC(=O)CSc1nc2ccccc2[nH]1`, the cell number change worked out at 43.9%. In addition, the concentration at half-maximal activity (AC50) under setting [2] was 2.31 µM [rising, full curve, poor fit].

As for `CCOC(=O)N1CCN(c2c(NCCCN(CC)c3cccc(C)c3)c(=O)c2=O)CC1`, the cell number change is -6.83%. The AC50 under setting [1] was 0.231 µM [rising, full curve, poor fit].

As to `Cc1cccc(OC(C)C(=O)Nc2ccc(S(=O)(=O)N3CCCC3)cc2)c1` (configuration not stated), the cell number change is -20.2%. Further, the AC50 under setting [1] is 29.1 µM [falling, single point].

For `Cc1cc(C)c(NC(=O)COC(=O)Cc2ccsc2)c(C)c1`, the cell number change amounted to 22.5%. Further, under setting [2], the half-maximal activity concentration (AC50) is 0.00651 µM [rising, full curve, poor fit].

As to `Cc1ccc(C(=O)NCC(=O)O)o1`, the cell number change was -37.1%. Moreover, under setting [1], the AC50 was 23.1 µM [falling, partial curve, poor fit].

On to `COc1cc(/C=C2\SC(=S)N(CC(=O)O)C2=O)ccc1OC(=O)c1ccco1`, for which the cell number change is -88.6%. Moreover, the half-maximal activity concentration (AC50) under setting [2] was 5.8 µM [falling, full curve]. Also, the AC50 under setting [1] is 6.51 µM [rising, partial curve].

Take `O=C(c1cccc(S(=O)(=O)N2CCCCC2)c1)N(CCc1ccccc1)Cc1ccccc1`: the cell number change worked out at 32.8%. In addition, the AC50 under setting [2] was 6.51 µM [rising, partial curve]. In addition, under setting [1], the AC50 is 7.31 µM [rising, partial curve].

For `CCC(CC)NC(=O)c1cccc(Br)c1`, the cell number change is 22.5%. In addition, the AC50 under setting [1] was 0.291 µM [falling, partial curve, poor fit].

As to `CC(=O)N1N=C(c2ccc3ccccc3c2)OC1(C)C`, the cell number change was -14.1%. Besides, the AC50 under setting [1] is 29.1 µM [rising, single point].

Consider `CC(C)(C)c1ccc(OCCNC(=O)Cc2ccc(F)cc2)cc1`, for which the cell number change was determined as 27.7%. For the same compound, the AC50 under setting [1] was 16.4 µM [rising, partial curve].

Regarding `O=C(COc1ccc(/C=C2/NC(=O)NC2=O)cc1)Nc1ccc(F)cc1`, the cell number change was determined as 30.3%.

Take `CSc1nc2n(n1)C(C)C1=C(CCCC1=O)N2` (configuration not stated): the cell number change is -16.6%. Besides, the AC50 under setting [1] was 1.84 µM [falling, partial curve].

Regarding `COc1ccccc1NS(=O)(=O)c1cc(NC(=O)C2=NNC(=O)CC2)ccc1C`, the cell number change is -39.7%. Further, under setting [2], the AC50 is 29.1 µM [falling, partial curve, poor fit]. In addition, under setting [1], the AC50 is 1.16 µM [falling, partial curve].

For `O=S(=O)(Nc1ccccc1F)c1ccc2nsnc2c1`, the cell number change turned out to be 15%. Besides, under setting [1], the AC50 is 0.731 µM [rising, full curve, poor fit].

As to `O=C(COC(=O)c1ccc(C(F)(F)F)cc1)NC(=O)NC1CCCC1`, the cell number change is -49.3%. The half-maximal activity concentration (AC50) under setting [2] was 5.17 µM [falling, partial curve, poor fit]. Further, the half-maximal activity concentration (AC50) under setting [1] is 18.4 µM [falling, single point].

In the case of `Cc1cc(F)ccc1S(=O)(=O)N1CCCOC1CNC(=O)C(=O)NCc1ccc2c(c1)OCO2` (configuration not stated), the cell number change was 68.4%. Further, the half-maximal activity concentration (AC50) under setting [2] was 25.9 µM [rising, single point]. Moreover, the AC50 under setting [1] was 9.2 µM [rising, partial curve].

`Cc1ccc(S(=O)(=O)N2CCN=C2c2ccccc2)cc1C`: the cell number change worked out at 28.9%. Further, the AC50 under setting [1] was 13 µM [rising, partial curve].

In the case of `CSc1ncccc1C(=O)OCC(=O)NC1CCS(=O)(=O)C1` (configuration not stated), the cell number change was -65.4%. Further, the half-maximal activity concentration (AC50) under setting [2] was 16.4 µM [falling, single point]. Also, the AC50 under setting [1] was 29.1 µM [falling, single point].

As to `COc1ccc(CNC(=O)CSc2cccc3cccnc23)cc1`, the cell number change amounted to 11.2%. The AC50 under setting [2] was 6.51 µM [rising, single point].

Turning to `COc1ccc(/C=N/Nc2cc(C)nc3ccccc23)cc1`, the cell number change was -54.9%. The AC50 under setting [2] was 9.2 µM [falling, partial curve]. Also, under setting [1], the AC50 was 6.51 µM [falling, single point].

Regarding `COc1ccc(NC(=O)CC2C(=O)NCCN2C(=O)c2ccccc2)cc1` (configuration not stated), the cell number change is -4.95%. Also, the AC50 under setting [1] is 0.517 µM [falling, full curve].

For `Cc1ccc2[nH]c(O)c(N=Nc3ccccc3C)c2c1`, the cell number change amounted to 38.7%. Besides, the half-maximal activity concentration (AC50) under setting [2] is 0.0291 µM [rising, full curve, poor fit].

For `CCC(C)/C(C)=N/NC(=O)c1ccc(COc2ccc(Cl)c(C)c2)cc1` (configuration not stated), the cell number change came to 10.5%. For the same compound, under setting [1], the AC50 is 18.4 µM [rising, partial curve, poor fit].

`Cc1ccnn1C(C)C(=O)O` (configuration not stated): the AC50 is 0.0366 µM [falling, full curve, poor fit] under setting [2] and 0.116 µM [falling, partial curve, poor fit] under setting [1].

As to `CCOC(=O)c1c(CN2CCC(C)CC2)oc2ccc(OC)cc12`, the cell number change was -52.3%. Further, the AC50 under setting [2] was 9.2 µM [falling, partial curve]. For the same compound, the AC50 under setting [1] was 14.6 µM [falling, partial curve].

For `Cc1ccc(C(=O)NCCN(C)C)c(C)c1`, the cell number change was -23.2%. Also, the AC50 under setting [2] was 2.06 µM [falling, partial curve, poor fit].

With `CCNC(=S)N(Cc1cc2cc(C)cc(C)c2[nH]c1=O)C1CCCC1`, the cell number change is 10%. Besides, the AC50 under setting [1] is 23.1 µM [rising, partial curve].

In the case of `CCC(=O)N(Cc1cc2ccccc2[nH]c1=O)c1ccccc1OC`, the cell number change was determined as 3.65%.

Regarding `Cc1ccc(-c2csc3ncnc(Cl)c23)cc1`, the cell number change was -13.3%. Also, the AC50 under setting [1] is 3.26 µM [falling, single point].

In the case of `COC(=O)COc1cccc(NC(=O)c2ccccc2)c1`, the cell number change amounted to 6.84%.

`Cc1nn(Cc2ccccc2Cl)c(C)c1NC(=O)NC12CC3CC(CC(C3)C1)C2`: the cell number change is -65.5%. In addition, the AC50 under setting [2] is 5.17 µM [falling, partial curve]. The concentration at half-maximal activity (AC50) under setting [1] was 4.11 µM [falling, partial curve].
